Measurements taken from publication PMC3585378.
Results are given in words; binding and its absence hold for the method and conditions named.

Sequences of proteins named here, by UniProt entry; tags and fusion partners are left off. Residues count along the entry.
UniProt Q99PZ6: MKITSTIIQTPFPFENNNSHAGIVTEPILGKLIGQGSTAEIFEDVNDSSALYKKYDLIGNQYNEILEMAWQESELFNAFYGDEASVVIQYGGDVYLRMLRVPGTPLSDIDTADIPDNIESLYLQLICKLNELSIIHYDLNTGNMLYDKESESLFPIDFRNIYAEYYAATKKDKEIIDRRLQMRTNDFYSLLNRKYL
UniProt P63165, residues 1-97: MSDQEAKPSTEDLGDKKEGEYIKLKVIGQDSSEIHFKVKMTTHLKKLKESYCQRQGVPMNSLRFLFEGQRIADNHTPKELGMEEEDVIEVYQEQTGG

Key:
[1] = target: His6-OspG (Shigella flexneri 2a strain 301) (UniProt Q99PZ6); assay: pull-down; both purified
[2] = target: His6-OspG (Shigella flexneri 2a strain 301) (UniProt Q99PZ6); assay: SEC; both purified

| Substance | binding [1] | binding [2] |
| --- | --- | --- |
| GST-SUMO1 (from UniProt P63165 1-97) | no binding (tested: 20 µg of prey proteins in 1 mL) |  |
| His6-OspG (from UniProt Q99PZ6 1-196) |  | no binding (tested: 200 µg loaded) |
